Laboratory results: PubChem BioAssay AID1347423 (Functional Genomics Laboratory (NCATS/FGL), 2020)
The whole screen tested about 52,000 sequences, of which about 210 (0.4%) were called active.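 The calls were made as follows: active = gene whose silencing raises cell survival under the drug, median off-target-corrected z-score across its silencing RNAs 2 or more; inactive = the rest.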 The list shows a part of the results.

Experiment: Resistance to Poly (ADP-Ribose) Polymerase inhibitor: Gene Identification via Genome-wide siRNA Screen
Settings: mouse BRCA2 R2336H ES cells, olaparib, CellTiter-Glo viability; active compounds read high
Method in brief: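 Mouse BRCA2 R2336H ES cells were reverse-transfected with siRNA (20 nM final), treated at 48 h with 500 nM olaparib, and read by CellTiter-Glo after 72 h. Scores: MAD-based z per siRNA, median per gene, seed off-target correction.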
With GCAGAGCUAACCUCAUUUGTT against Gmeb2 the z-score was inactive: -2.11. In the case of “GGAGGAGGAGGACUUUGAUTT against 5830417I10Rik”, the z-score is reported as inactive: -1.23. For GGCCCUGAGAGAAACAAGATT against Ly9, the z-score was inactive: -1.37. With GCCGUUCUCGGGUAAUGUUTT against Cpeb2 the z-score was inactive: -1.17. For GGCUGAAGGCAAAUCAAGATT against Cuzd1, the z-score was inactive: 1.22. In the case of GGCAAGAAAGAAAGGCCAATT against Rps23, the z-score is reported as inactive: -3.11. In the case of GCCAGGCUUACAAUAGUCCTT against Tpsg1, the z-score is reported as inactive: 2.28. With GCUCCUACCCAAGGUUUAATT against Arl9 the z-score was inactive: -1.33. With GGGACAUUUCUAUUAGAAUTT against Snx24 the z-score was inactive: 0.332. For “GCUGUUCGUGAGGAUAACCTT against C030002N13Rik”, the z-score was inactive: -0.156. In the case of “CCUCAUGUAAUUGGACCAATT against 2010208K18Rik”, the z-score is reported as inactive: 1.67. With GCGCAAAGUCGAAUCCAGUTT against Vgll1 the z-score was inactive: -0.143. For GCCUUAAUGAACCAGCACCTT against Tek, the z-score was inactive: 1.97. With GCGAUUACCUGGAUAUCGGTT against Acvrl1 the z-score was inactive: -0.296. For GGGCCAUGGAUAAGAAAAATT against Psmc5, the z-score was inactive: -2.52. In the case of GGCAACAUCCAAAAAUAAATT against Lass4, the z-score is reported as inactive: -0.0306. In the case of GGAAAAUUUUGAAAGACCUTT against Atf1, the z-score is reported as inactive: 3.25. For GGGAGGUCAACCUUUUAAUTT against Cyp2j5, the z-score was inactive: 1.22. In the case of CGUUUACCAGGAUAUCCAATT against Mmp27, the z-score is reported as inactive: -1.12. With GCUCACAACAUGAGAGUCATT against Atp6v0e the z-score was inactive: -1.48. In the case of GCCAGCAUAUGGACUACAATT against Ccnt2, the z-score is reported as inactive: -1.52. For GCAAUCGUAAGUAAAUAGATT against Gas1, the z-score was inactive: 0.0203. With GGAUCACAUCUAUGAGAAGTT against Fdx1 the z-score was inactive: -0.262. In the case of GGAAAUCACCAACUUGGCCTT against Pou3f3, the z-score is reported as inactive: -0.944. With CGUGAUGUGAACGGAGGUATT against Six2 the z-score was inactive: -0.387. For “CCGGUACCUCAAUUCAACUTT against 2810030E01Rik”, the z-score was inactive: 0.256. For CCUGUUAAACAGGACUAGUTT against AI597468, the z-score was inactive: 0.62. With CGACGAGAAAAUCACUCAGTT against Nkx6-1 the z-score was inactive: -0.748. With GCAAAUGCAUGACUUCUAUTT against Rnf134 the z-score was inactive: 0.0189. In the case of “GGAAAUGCAUCCAUGCGGUTT against 4933432P15Rik”, the z-score is reported as inactive: -0.367. For “GGAAACUCCCUGAACCGGATT against 2700088M22Rik”, the z-score was inactive: 1.15. In the case of “GGAUGUUUGGACCAAUCACTT against 4930543L23Rik”, the z-score is reported as inactive: -0.419. In the case of “GGUUGGAAAAUGAAUGAAATT against 1110028E10Rik”, the z-score is reported as inactive: 0.117. With GGAGAACCACUACAUGCAATT against Bcl2l1 the z-score was inactive: -1.22. With CCACCAUUCUACAUAAUCATT against Abl1 the z-score was inactive: -0.42. With GGCACUGCACUUUAACAUATT against Serpinb7 the z-score was inactive: -0.339. In the case of “CCAAACGGAAGUAUCUUAUTT against 2810021O14Rik”, the z-score is reported as inactive: -0.181. For GGAAGUCACUUGCCCAAGGTT against Prm2, the z-score was inactive: 0.683. For GGAGUCUGUAUUCUCAACATT against Knsl7, the z-score was inactive: -0.321. With GGAGAAAGUCAUCUUUGAUTT against Cdk5rap2 the z-score was inactive: -0.542. In the case of “GGGUUCUUUCCAAAGUUACTT against D030011O10Rik”, the z-score is reported as inactive: 0.456. With CGGAACACACCAAGAAUCUTT against Prkcabp the z-score was inactive: 1.08. For “GGCGGAGAAAGUGUUCAUGTT against 5730568A12Rik”, the z-score was inactive: 0.552. With CCAAGGUCUAAAAAAAUAGTT against Adamts19 the z-score was inactive: -0.651. For CCCUGUUACGAAGUUUAACTT against Slc17a7, the z-score was inactive: -0.183. For GGACCUUCUAGAAGACAAGTT against Gna11, the z-score was inactive: -0.0772. In the case of “GCACACUGAUGAACUUACCTT against 4933401N24Rik”, the z-score is reported as inactive: 0.497. With GGCCAGAACUACGAAGCCATT against Capn12 the z-score was inactive: 1.78. For GGACCAAGUAUCAUGAUGUTT against Zfp369, the z-score was inactive: 0.881. In the case of GGUGGAGAACCAUAUCACATT against Abcg4, the z-score is reported as inactive: 0.507. With GCUCAAACUUUACUAUACATT against Cdh6 the z-score was inactive: -0.872. With GGAAAAUGAGCAAGAAGAATT against Syt12 the z-score was inactive: 0.512. With GGUAUAAAGGAUGCAUUCATT against Osmr the z-score was inactive: -0.811. For CCUUCCAUGGUGAGGAUAATT against Stim1, the z-score was inactive: -2.35. In the case of GGAAAUGACCCACUCGUGGTT against Mllt2h, the z-score is reported as inactive: 0.467. With GGGUAUCAUUACAGAUACGTT against Tpbg the z-score was inactive: 1.5. For GCUUGGAAGACAUUGACCCTT against Brsk2, the z-score was inactive: -0.948. In the case of “GGGCUCCACUGUUGUUAUATT against 3110038L01Rik”, the z-score is reported as inactive: 0.00798. With “CCUAGACUUGAACAAACACTT against 2600001B17Rik” the z-score was inactive: 2.75. For CGAACAUUCCUUCCAUAACTT against Kcnd3, the z-score was inactive: 0.588. With GGCUGAGAGUCCAAAAAGGTT against Dok3 the z-score was inactive: -1.2. For CCACCUUCCUAUGUUUGUATT against Ebf2, the z-score was inactive: 0.94. For GCCCAAAAGUAUAAACCAGTT against Peg12, the z-score was inactive: -1.72. For GGUCUCCCACCCAACGAUATT against Kbtbd2, the z-score was inactive: 0.175. With GGAUCUGGAAUCACUGUUUTT against Lmnb2 the z-score was inactive: 0.232. With GCUUGGUGUGGAAUUUUUUTT against Ppp2r1a the z-score was inactive: -0.223. For CCUGGAGAGCAUCCUUCUUTT against Olfr382, the z-score was inactive: 0.973. In the case of GGCAGUAGCCUUGUCUGUCTT against Prrx2, the z-score is reported as inactive: -1.64. In the case of CCAGUUUGGACAUUGGAAATT against Cyp26b1, the z-score is reported as inactive: 0.0117. With CCAUCUACGUGGGACACAATT against Atp11a the z-score was inactive: -1.41. In the case of CGUGUACAUAGACCAUAUATT against Olfr453, the z-score is reported as inactive: -0.513. In the case of GGAUAUUCCUGGACUGACATT against Rps6, the z-score is reported as inactive: -3.17. For GGAUUCAUCAUCUGUUACUTT against Rit1, the z-score was inactive: 1.18. With GCCUAUUGAGAUCUACGGCTT against Elac1 the z-score was inactive: 0.977. In the case of “GGAAAUACCAUUCAAGUGUTT against 2810428C21Rik”, the z-score is reported as inactive: 0.105. With GGGACUCAUGGGAUUGAAATT against Gm605 the z-score was inactive: 0.728. In the case of GGACGGGAUUGAGCCUAUGTT against Eif4e, the z-score is reported as inactive: -0.356. For GGUAUAGACUGGAAGUAUUTT against Dnajc3, the z-score was inactive: -1.4. In the case of GGAGAAAACUUUCUGUGUGTT against Nrg1, the z-score is reported as inactive: 0.285. In the case of “GGUACUACAAGAGAAAAGATT against 3110052N05Rik”, the z-score is reported as inactive: -1.68. For CGUACAACCUCAAGGUUCUTT against Lag3, the z-score was inactive: -1.84. For “GGGCACACUGUAAAGUUGGTT against 3110038L01Rik”, the z-score was inactive: 0.788. In the case of GCUCAGAUAUGAGCAAGCUTT against Fadd, the z-score is reported as inactive: -0.651. With CCAAAGAAGGACUUAGAUUTT against Ddx50 the z-score was inactive: -0.487. For GGCAAUGCUGCAUCUCCUATT against Fbln2, the z-score was inactive: -0.842. In the case of “GGAGAAAAGCUGUAUACACTT against 2300008B03Rik”, the z-score is reported as inactive: -0.162. For “GCCAGAAGAAUCUAUGUUATT against 1700008I05Rik”, the z-score was inactive: -0.165. In the case of GCAAAACCAUUUCGAAACATT against Slc41a3, the z-score is reported as inactive: 0.102. In the case of GGUUCUACAUUGGCGAGAUTT against Cdc42bpb, the z-score is reported as inactive: -0.27. In the case of GGUACAAAGACUGACGAGUTT against AU067744, the z-score is reported as inactive: 0.443. In the case of GCAUUAGAACAAAGGAUGCTT against Rps19, the z-score is reported as inactive: -3.29. In the case of CGCAGUACAUACAACUGUGTT against Art1, the z-score is reported as inactive: 0.827. For GGAUUGUGGUCCAUGAAUATT against Tmprss7, the z-score was inactive: 0.575. For “GCAGUCAUUCAAGGUUCCUTT against 8430410A17Rik”, the z-score was inactive: -0.702. For GGGUUGCUUCAACUUUUAGTT against Mpp1, the z-score was inactive: 0.623. With “GGCAAACCUGCUUCUGCUATT against 1700049K14Rik” the z-score was inactive: -1.31. For CCAUUGAGAUCAGCGACAUTT against AW539457, the z-score was inactive: -1.31. In the case of GGUCGAUCCAAGGAAAGAUTT against Gbas, the z-score is reported as inactive: -1.57. For GGGAAUUACAGCACACAAUTT against Treml4, the z-score was inactive: -0.488. In the case of GGUGAGCAUGGACUAUGAUTT against Syt12, the z-score is reported as inactive: -0.053. For GUUUCUUCCAAACUCCAUCTT against Olfr487, the z-score was inactive: -0.204. With GCGUGUAAGUAUGAGAACCTT against AW456874 the z-score was inactive: 0.0754. With GCCAACAUGUAUCAAAGCUTT against Rpgr the z-score was inactive: -0.0745. For “UAAUACAUUUCGAGCUGCATT against D11Bwg0517e”, the z-score was inactive: -0.0517.
